Certain results were filed several times, with different values. Only these are listed. An entry can have further records. Values given together differ, and nothing given here explains why; dose, time, organism, isomer or construct need not be as stated for each record.

This test relates to CFA-induced mechanical hyperalgesia. The test can be described thus: Rat CFA in vivo model. Also on record: species or system Sprague Dawley rats. To be noted: 3 mg/kg p.o.

On to `Cc1ccc(-c2cc(OC3CCOC3)cc(C(=O)N[C@H](C)c3ccc(C)nc3)c2)nc1` (stereo partly shown), for which the “Paw withdrawal threshold 6 hour-post drug” value is 565 ± 74 gf (ns) and 549 ± 42 (ns) gf.

The record behind these values is patent US10183937B2.
